The list shows a part of the results. The data scatter; read single values as rough.
Assays:
[1] = compound: ClCC(=O)N[C@@H]1CCCc2ccccc12; assay: log2 mean competition ratio of IA-DTB cysteine labelling (DMSO/compound) (log2 ratio); higher = stronger cysteine engagement by compound; conditions: treatment time: 4 h, cell line lysate: HEK293T
Procedure: (§1)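 IA-DTB competitive cysteine chemoproteomics in HEK293T RIPA lysate. Lysates were treated with compound 29 or 30 at 50 or 200 µM for 4 h, then IA-DTB (500 µM, 1 h), trypsin-digested, NeutrAvidin-enriched and analysed by diaPASEF. Competition ratio = intensity DMSO / intensity compound (n=4 treated, n=64 DMSO); binding: mean log2 CR ≥ 1 and p ≤ 0.05 plus QC filters. Target is the cysteine site.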

Amino acid sequences for entries named in this document (tags omitted). A change or cut given only in a name is not applied to a line headed by its entry.
UniProt Q96LT9: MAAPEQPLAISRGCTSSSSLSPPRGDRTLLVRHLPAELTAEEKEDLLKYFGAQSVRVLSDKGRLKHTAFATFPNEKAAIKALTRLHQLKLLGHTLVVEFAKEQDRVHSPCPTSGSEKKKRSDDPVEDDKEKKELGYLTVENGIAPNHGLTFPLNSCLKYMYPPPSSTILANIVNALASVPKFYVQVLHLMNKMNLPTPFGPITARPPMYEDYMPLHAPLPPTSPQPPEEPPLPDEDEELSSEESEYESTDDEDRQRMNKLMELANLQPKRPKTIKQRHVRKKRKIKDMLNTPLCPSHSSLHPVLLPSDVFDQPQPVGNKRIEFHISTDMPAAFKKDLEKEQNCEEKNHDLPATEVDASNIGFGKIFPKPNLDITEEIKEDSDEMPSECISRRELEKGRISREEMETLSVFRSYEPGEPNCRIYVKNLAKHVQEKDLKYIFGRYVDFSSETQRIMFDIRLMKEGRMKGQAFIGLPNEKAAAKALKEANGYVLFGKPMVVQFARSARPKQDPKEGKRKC
UniProt P62070: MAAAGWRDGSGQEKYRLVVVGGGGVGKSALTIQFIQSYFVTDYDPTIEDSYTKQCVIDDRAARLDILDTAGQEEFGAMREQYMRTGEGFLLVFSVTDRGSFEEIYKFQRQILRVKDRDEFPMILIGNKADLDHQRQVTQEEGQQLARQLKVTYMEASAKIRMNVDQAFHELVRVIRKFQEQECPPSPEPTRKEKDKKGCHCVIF
UniProt P28702: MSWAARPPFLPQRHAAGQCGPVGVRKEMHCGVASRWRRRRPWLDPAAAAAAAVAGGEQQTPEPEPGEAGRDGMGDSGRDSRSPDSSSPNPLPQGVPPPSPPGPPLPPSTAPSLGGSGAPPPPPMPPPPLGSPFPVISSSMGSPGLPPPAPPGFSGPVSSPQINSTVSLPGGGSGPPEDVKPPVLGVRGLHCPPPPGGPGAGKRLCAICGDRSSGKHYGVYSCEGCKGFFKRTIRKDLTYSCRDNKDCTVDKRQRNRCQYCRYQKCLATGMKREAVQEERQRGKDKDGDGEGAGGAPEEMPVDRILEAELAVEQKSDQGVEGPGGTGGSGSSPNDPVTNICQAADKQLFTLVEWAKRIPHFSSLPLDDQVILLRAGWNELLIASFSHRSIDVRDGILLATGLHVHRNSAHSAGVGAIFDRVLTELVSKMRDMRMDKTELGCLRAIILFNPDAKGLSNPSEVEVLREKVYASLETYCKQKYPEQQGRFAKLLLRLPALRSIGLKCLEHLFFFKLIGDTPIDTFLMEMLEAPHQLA
UniProt P23921: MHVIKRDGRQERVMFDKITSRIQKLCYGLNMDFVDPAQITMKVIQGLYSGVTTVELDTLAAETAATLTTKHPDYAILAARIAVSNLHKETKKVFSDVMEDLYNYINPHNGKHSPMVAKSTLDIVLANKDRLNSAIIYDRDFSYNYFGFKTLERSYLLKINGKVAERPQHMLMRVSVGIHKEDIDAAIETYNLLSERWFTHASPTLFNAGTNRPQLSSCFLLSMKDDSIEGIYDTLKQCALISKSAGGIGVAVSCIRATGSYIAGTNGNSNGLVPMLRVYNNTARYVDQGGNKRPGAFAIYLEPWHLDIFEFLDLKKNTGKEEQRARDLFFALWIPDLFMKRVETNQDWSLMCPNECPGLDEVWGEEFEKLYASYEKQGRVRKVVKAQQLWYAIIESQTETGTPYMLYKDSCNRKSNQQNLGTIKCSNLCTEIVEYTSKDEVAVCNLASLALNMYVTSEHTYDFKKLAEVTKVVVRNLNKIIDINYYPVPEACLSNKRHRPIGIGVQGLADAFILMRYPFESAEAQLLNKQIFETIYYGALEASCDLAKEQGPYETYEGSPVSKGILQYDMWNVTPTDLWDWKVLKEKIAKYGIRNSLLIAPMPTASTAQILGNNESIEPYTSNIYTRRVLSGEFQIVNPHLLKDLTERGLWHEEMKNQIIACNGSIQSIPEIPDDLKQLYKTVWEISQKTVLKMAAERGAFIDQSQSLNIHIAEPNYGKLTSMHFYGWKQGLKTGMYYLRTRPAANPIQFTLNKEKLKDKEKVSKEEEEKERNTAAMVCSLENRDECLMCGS
UniProt O60942: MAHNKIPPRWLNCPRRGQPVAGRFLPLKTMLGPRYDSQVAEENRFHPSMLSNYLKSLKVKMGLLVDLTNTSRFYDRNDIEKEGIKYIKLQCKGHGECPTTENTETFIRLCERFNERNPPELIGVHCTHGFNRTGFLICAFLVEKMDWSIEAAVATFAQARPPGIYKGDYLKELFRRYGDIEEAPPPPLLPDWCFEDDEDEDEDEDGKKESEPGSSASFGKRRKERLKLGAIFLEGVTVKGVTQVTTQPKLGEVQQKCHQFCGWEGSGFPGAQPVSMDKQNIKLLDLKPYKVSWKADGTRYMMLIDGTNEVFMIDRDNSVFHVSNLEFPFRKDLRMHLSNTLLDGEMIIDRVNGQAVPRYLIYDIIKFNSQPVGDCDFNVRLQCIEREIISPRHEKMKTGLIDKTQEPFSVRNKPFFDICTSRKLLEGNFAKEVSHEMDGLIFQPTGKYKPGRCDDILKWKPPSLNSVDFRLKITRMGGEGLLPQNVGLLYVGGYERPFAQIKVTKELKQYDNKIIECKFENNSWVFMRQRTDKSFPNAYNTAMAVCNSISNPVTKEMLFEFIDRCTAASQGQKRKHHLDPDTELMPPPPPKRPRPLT
UniProt Q9H6T3, whole entry, looked up: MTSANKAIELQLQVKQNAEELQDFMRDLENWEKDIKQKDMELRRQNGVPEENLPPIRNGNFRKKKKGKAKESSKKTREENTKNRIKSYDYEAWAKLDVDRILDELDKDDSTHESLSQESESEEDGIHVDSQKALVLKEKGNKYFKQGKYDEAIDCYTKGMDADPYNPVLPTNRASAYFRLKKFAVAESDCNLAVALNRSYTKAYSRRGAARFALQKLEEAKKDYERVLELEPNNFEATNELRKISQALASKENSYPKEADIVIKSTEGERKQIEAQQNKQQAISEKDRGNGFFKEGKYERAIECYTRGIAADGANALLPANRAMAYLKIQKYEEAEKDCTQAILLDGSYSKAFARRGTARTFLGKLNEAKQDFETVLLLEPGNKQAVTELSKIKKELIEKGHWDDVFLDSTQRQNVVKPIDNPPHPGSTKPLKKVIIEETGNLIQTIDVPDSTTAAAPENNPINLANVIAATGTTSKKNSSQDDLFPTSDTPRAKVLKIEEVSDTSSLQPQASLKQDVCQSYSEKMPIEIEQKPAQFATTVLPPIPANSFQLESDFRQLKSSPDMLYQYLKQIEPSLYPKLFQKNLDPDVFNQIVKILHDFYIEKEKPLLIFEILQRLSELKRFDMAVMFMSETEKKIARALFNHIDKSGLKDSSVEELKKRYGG
UniProt P10301: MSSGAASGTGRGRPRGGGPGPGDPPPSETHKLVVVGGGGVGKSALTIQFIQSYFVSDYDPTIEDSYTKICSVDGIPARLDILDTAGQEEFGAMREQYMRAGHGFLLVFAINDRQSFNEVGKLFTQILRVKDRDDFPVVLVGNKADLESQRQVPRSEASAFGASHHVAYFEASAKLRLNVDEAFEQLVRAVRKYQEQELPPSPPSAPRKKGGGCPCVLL
UniProt Q5JTH9: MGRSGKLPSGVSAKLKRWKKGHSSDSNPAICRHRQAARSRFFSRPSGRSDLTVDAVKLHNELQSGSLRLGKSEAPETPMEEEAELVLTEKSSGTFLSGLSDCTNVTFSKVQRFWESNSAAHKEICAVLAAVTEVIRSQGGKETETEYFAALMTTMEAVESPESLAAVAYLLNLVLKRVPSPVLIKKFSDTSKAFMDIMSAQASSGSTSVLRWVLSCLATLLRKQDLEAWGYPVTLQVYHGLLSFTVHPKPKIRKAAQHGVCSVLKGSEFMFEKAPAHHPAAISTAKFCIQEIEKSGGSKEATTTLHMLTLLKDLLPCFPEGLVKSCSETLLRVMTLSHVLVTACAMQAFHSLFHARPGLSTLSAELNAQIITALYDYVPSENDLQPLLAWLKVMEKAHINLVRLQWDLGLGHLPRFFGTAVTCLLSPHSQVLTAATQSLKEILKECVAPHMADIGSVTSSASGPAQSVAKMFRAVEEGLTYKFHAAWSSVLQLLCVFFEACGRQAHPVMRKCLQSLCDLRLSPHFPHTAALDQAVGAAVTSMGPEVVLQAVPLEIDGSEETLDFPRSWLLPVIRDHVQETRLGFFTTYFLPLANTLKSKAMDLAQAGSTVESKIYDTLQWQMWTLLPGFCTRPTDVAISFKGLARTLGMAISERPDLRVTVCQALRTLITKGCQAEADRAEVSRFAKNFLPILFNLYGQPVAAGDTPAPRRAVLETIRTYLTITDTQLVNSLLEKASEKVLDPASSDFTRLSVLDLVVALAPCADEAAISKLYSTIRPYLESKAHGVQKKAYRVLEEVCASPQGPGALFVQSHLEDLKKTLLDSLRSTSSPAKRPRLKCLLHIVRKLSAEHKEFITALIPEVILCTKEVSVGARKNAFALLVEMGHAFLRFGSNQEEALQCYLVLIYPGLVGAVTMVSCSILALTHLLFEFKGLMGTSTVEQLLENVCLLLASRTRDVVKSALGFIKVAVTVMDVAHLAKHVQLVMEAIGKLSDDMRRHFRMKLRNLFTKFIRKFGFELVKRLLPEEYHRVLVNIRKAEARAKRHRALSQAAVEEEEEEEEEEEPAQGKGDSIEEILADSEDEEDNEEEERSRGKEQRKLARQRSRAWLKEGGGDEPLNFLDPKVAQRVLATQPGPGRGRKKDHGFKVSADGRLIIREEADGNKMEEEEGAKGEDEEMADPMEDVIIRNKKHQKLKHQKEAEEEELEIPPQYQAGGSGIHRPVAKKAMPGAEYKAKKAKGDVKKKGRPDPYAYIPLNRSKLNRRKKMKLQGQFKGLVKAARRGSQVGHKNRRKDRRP
UniProt Q9BV68: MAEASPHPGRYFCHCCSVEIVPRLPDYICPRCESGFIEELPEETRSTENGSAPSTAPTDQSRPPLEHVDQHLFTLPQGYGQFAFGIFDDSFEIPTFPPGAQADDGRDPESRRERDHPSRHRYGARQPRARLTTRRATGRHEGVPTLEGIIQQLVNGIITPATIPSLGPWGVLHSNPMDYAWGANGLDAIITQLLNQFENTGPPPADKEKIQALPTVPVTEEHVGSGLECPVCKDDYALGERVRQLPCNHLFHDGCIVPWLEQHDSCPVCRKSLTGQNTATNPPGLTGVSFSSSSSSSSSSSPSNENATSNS
UniProt Q8N122, whole entry, looked up: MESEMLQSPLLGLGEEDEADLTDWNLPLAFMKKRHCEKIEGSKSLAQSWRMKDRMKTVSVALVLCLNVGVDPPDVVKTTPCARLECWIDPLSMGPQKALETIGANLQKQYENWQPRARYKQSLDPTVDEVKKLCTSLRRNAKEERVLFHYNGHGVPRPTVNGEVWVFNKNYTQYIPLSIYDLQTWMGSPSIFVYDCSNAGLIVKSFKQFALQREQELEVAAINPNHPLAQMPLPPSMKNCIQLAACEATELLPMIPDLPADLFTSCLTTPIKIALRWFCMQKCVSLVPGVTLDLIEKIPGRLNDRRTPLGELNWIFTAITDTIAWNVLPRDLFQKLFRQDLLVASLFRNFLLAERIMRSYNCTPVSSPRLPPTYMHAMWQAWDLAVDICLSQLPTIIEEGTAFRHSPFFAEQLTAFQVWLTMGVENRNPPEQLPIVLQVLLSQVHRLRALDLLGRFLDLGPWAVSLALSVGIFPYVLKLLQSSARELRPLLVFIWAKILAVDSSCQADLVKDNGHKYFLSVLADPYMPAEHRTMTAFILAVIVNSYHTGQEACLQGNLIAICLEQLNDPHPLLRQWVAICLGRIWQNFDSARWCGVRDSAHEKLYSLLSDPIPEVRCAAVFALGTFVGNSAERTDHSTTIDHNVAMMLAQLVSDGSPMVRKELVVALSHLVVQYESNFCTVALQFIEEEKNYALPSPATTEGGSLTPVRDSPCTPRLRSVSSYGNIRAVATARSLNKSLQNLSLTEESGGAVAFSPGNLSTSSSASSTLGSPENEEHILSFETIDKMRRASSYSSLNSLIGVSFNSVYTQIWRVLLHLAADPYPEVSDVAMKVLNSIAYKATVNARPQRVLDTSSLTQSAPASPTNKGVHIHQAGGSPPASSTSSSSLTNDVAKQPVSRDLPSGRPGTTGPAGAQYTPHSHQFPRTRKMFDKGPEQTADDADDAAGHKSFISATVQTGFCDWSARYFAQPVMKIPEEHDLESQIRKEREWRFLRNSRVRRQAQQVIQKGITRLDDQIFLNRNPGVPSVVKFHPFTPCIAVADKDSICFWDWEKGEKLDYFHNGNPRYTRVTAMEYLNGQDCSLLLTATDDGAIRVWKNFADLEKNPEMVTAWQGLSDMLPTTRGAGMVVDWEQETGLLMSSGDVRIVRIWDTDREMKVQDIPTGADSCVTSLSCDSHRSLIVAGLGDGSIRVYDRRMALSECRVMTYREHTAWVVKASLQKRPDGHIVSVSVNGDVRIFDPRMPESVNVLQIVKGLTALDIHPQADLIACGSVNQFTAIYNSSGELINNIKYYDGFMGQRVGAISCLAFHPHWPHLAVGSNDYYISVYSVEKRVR
UniProt O95059: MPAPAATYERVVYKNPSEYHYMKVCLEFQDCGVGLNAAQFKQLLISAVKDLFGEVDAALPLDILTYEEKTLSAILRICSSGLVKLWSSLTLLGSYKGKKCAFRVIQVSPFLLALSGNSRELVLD

[2] = compound: ClCC(=O)N[C@H]1CCCc2ccccc12; assay: as above; conditions: treatment time: 4 h, cell line lysate: HEK293T
Procedure: as §1

Row | Target | log2 mean competition ratio ([1]; 50 µM) | log2 mean competition ratio ([1]; 200 µM) | log2 mean competition ratio ([2]; 50 µM) | log2 mean competition ratio ([2]; 200 µM)
1 | RNF213 C1510 | 0.142 | 0.0644 | 0.166 | 0.0656
2 | RNPC3 C110 (UniProt Q96LT9) | -0.246 | -0.058 | -0.25 | -0.0559
3 | RUFY1 C8 (UniProt Q96T51) | -0.189 | -0.037 | 0.156 | -0.0301
4 | RNF8 C181 (UniProt O76064) | -0.071 | 0.0109 | -0.14 | -0.0953
5 | RRAS2 C183 (UniProt P62070) | -0.0487 | 0.508 | -0.499 | -0.0729
6 | RXRB C30 (UniProt P28702) | 0.285 | 0.242 | 0.453 | 0.126
7 | RNF214 C315 (UniProt Q8ND24) | 0.11 | -0.0822 | -0.13 | -0.0672
8 | RNFT1 C62 (UniProt Q5M7Z0) | 0.146 | 0.126 | 0.278 | -0.0899
9 | RPS6KA3 C436 (UniProt P51812) | -0.121 | -0.213 | 0.0455 | -0.16
10 | RPS6KA5 C475 (UniProt O75582) | 0.162 | -0.284 | -0.0896 | -0.444
11 | RPS11 C60 (UniProt P62280) | 0.669 | 0.355 | 0.345 | 0.384
12 | RRP1B C197 (UniProt Q14684) | -0.0554 | 0.369 | -0.333 | 0.293
13 | RPSA C163 | -0.00593 | -0.592 | 0.36 | -0.469
14 | RNF213 C4397 | 0.0339 | -0.252 | -0.108 | -0.102
15 | RPS17 C35 (UniProt P08708) | 0.137 | -0.291 | -0.0951 | -0.227
16 | RO60 C499 (UniProt P10155) | 0.223 | 0.331 | 0.634 | -0.0612
17 | RPGR C914 (UniProt Q92834) | 0.0345 | -0.0854 | -0.323 | -0.0585
18 | RPF2 C135 (UniProt Q9H7B2) | 0.182 | -0.0492 | -0.0653 | -0.00278
19 | RTKN C62 (UniProt Q9BST9) | 0.0745 | 0.12 | 0.334 | 0.187
20 | RRM2 C202 (UniProt P31350) | 0.0987 | -0.164 | 0.191 | -0.1
21 | RPS28 C27 (UniProt P62857) | 0.369 | -0.362 | 0.543 | -0.366
22 | RPL27A C144 (UniProt P46776) | -0.0423 | -0.12 | 0.653 | 0.121
23 | RPS3A C111 | 0.185 | -0.0131 | 0.197 | -0.0507
24 | RUBCN C459 (UniProt Q92622) | -0.0945 | -0.104 | -0.355 | 0.143
25 | RNASEL C639 (UniProt Q05823) | 0.0431 | 0.0403 | 0.175 | 0.112

Row | Target | log2 mean competition ratio ([1]; 50 µM) | log2 mean competition ratio ([1]; 200 µM) | log2 mean competition ratio ([2]; 50 µM) | log2 mean competition ratio ([2]; 200 µM)
26 | RRM1 C238 (UniProt P23921) | -0.553 | -0.91 | 0.292 | -0.269
27 | RTCA C63 (UniProt O00442) | -0.00895 | 0.0877 | 0.155 | -0.179
28 | RNGTT C565 (UniProt O60942) | -0.136 | -0.163 | -0.0298 | 0.0934
29 | RPS15A C72 (UniProt P62244) | 0.164 | -0.301 | 0.321 | -0.243
30 | RNPC3 C343 (UniProt Q96LT9) | -0.342 | -0.00228 | -0.0499 | -0.0429
31 | RPL12 C162 (UniProt P30050) | -0.14 | 0.126 | -0.0731 | -0.0308
32 | RRBP1 C892 (UniProt Q9P2E9) | 0.6 | -0.0166 | 0.413 | -0.182
33 | RPS6KB1 C240 (UniProt P23443) | 0.201 | 0.407 | 0.505 | 0.623
34 | RNF114 C8 (UniProt Q9Y508) | -0.208 | -0.0552 | 0.528 | 0.0885
35 | RTKN C306 (UniProt Q9BST9) | -0.169 | 0.00137 | 0.1 | -0.149
36 | RPAP3 C304 (UniProt Q9H6T3) | 0.0989 | 0.104 | 0.174 | 0.206
37 | RRAS C70 (UniProt P10301) | -0.221 | 0.0433 | -0.484 | -0.0496
38 | RUFY1 C320 (UniProt Q96T51) | -0.191 | -0.16 | -0.0153 | -0.134
39 | RPL18A C22 (UniProt Q02543) | 0.0696 | -0.11 | 0.503 | -0.161
40 | RXRB C475 (UniProt P28702) | 0.255 | 0.229 | 0.0684 | 0.0844
41 | RTF2 C3 (UniProt Q9BY42) | -0.126 | 0.0152 | 0.119 | 0.0737
42 | RPGRIP1L C173 | -0.114 | -0.0475 | 0.0724 | -0.129
43 | RNF34 C137 (UniProt Q969K3) | -0.779 | -0.448 | -0.377 | -0.341
44 | RRP12 C261 (UniProt Q5JTH9) | 0.415 | 0.239 | 0.569 | 0.196
45 | RPL36A;RPL36AL C77;(C77) | -0.524 | -0.00626 | 0.3 | 0.381
46 | RNF126 C32 (UniProt Q9BV68) | -0.391 | -0.157 | 0.137 | -0.00288
47 | RPTOR C713 (UniProt Q8N122) | -0.08 | -0.0295 | 0.26 | 0.206
48 | RPP14 C78 (UniProt O95059) | 0.169 | -0.387 | 0.51 | -0.277
49 | RXRB C191 (UniProt P28702) | 0.398 | -0.452 | 0.482 | -0.209

From no. 8 up to 10, copied from above:
Row | Target | log2 mean competition ratio ([1]; 50 µM) | log2 mean competition ratio ([1]; 200 µM) | log2 mean competition ratio ([2]; 50 µM) | log2 mean competition ratio ([2]; 200 µM)
8 | RNFT1 C62 (UniProt Q5M7Z0) | 0.146 | 0.126 | 0.278 | -0.0899
9 | RPS6KA3 C436 (UniProt P51812) | -0.121 | -0.213 | 0.0455 | -0.16
10 | RPS6KA5 C475 (UniProt O75582) | 0.162 | -0.284 | -0.0896 | -0.444
